Test results published in paper doi:10.1101/202598.

B1: VPS33b (endogenous) (protein, UniProt Q9H267 1-617)
chain: MAFPHRPDAPELPDFSMLKRLARDQLIYLLEQLPGKKDLFIEADLMSPLDRIANVSILKQHEVDKLYKVENKPALSSNEQLCFLVRPRIKNMRYIASLVNADKLAGRTRKYKVIFSPQKFYACEMVLEEEGIYGDVSCDEWAFSLLPLDVDLLSMELPEFFRDYFLEGDQRWINTVAQALHLLSTLYGPFPNCYGIGRCAKMAYELWRNLEEEEDGETKGRRPEIGHIFLLDRDVDFVTALCSQVVYEGLVDDTFRIKCGSVDFGPEVTSSDKSLKVLLNAEDKVFNEIRNEHFSNVFGFLSQKARNLQAQYDRRRGMDIKQMKNFVSQELKGLKQEHRLLSLHIGACESIMKKKTKQDFQELIKTEHALLEGFNIRESTSYIEEHIDRQVSPIESLRLMCLLSITENGLIPKDYRSLKTQYLQSYGPEHLLTFSNLRRAGLLTEQAPGDTLTAVESKVSKLVTDKAAGKITDAFSSLAKRSNFRAISKKLNLIPRVDGEYDLKVPRDMAYVFGGAYVPLSCRIIEQVLERRSWQGLDEVVRLLNCSDFAFTDMTKEDKASSESLRLILVVFLGGCTFSEISALRFLGREKGYRFIFLTTAVTNSARLMEAMSEVKA
B2: ATG4B (endogenous) (protein, UniProt Q9Y4P1 1-393)
chain: MDAATLTYDTLRFAEFEDFPETSEPVWILGRKYSIFTEKDEILSDVASRLWFTYRKNFPAIGGTGPTSDTGWGCMLRCGQMIFAQALVCRHLGRDWRWTQRKRQPDSYFSVLNAFIDRKDSYYSIHQIAQMGVGEGKSIGQWYGPNTVAQVLKKLAVFDTWSSLAVHIAMDNTVVMEEIRRLCRTSVPCAGATAFPADSDRHCNGFPAGAEVTNRPSPWRPLVLLIPLRLGLTDINEAYVETLKHCFMMPQSLGVIGGKPNSAHYFIGYVGEELIYLDPHTTQPAVEPTDGCFIPDESFHCQHPPCRMSIAELDPSIAVGFFCKTEDDFNDWCQQVKKLSLLGGALPMFELVELQPSHLACPDVLNLSLDSSDVERLERFFDSEDEDFEILSL

Tests used:
Test in all cases: affinity purification with mass spectrometry
[1] = biological target: T1, Strep-tagged Mtb Rv2074 (Mycobacterium tuberculosis (Erdman strain)) (UniProt P9WLL7)
T1 sequence: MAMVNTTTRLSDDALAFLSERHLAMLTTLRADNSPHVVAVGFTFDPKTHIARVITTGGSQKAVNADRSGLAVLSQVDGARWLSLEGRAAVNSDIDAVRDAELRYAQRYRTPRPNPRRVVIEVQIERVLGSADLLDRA

[2] = biological target: T2, LpqN-Strep (expressed in 293T cells) (Mycobacterium tuberculosis (Erdman strain)) (UniProt O53780)
T2 sequence: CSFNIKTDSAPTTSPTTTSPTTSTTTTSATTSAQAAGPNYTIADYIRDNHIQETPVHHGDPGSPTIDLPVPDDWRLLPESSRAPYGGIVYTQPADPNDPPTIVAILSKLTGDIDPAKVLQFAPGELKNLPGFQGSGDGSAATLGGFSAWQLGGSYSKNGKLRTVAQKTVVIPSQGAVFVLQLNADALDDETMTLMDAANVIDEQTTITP

[3] = biological target: T1, Strep-tagged Mtb Rv2074 (Mycobacterium tuberculosis (Erdman strain)); remark: listed apart in the source

Molecule	binding [1]	also measured
VCP (endogenous) (from UniProt P55072 1-806)	binds	–
VPRBP (endogenous) (from UniProt Q9Y4B6 1-1507)	binds	–
B1	–	binding [2]: binds
B2	–	binding [3]: binds

Where two headings read alike, the source gives them in different places. These are yes or no findings as the source states them, for the method shown. In cells and extracts the contact can be indirect. These calls come from enrichment with a bait or labelling near it, and not all partners need be listed. Where a sequence is shown, tags or fusion partners need not be part of it.
